The test addresses T1, isolated EH-domain of EHD2 (mouse, UniProt Q8BH64 443-543, limits assumed).
T1 construct: domain: EH-domain; ITC buffer contained 200 µM CaCl2
T1 sequence (looked up): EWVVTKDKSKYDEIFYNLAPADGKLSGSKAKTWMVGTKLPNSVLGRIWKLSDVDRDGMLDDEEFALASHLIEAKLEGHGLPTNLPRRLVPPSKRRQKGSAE
In words: ITC.

Data on one molecule can be found in patent US20120214173A1, “Methods of Identifying Modulators of an Ehd Polypeptide” (priority 2007, published 2012).

Results are given in words; binding and its absence hold for the method and conditions named. Some binding calls cover weakened binding; strength is not graded here.

B1: peptide 124-KLNPFGNT from EHD2 (peptide)
peptide: KLNPFGNT
notes: also called side site NPF peptide
Consider B1, for which the binding entry is on record as “binds”.
